Some of the results follow.
Assays:
Test in all cases: log2 fold change, soluble protein after heating vs DMSO (PISA); higher = thermal stabilisation; K562 cells, 10 uM, 30 min; active = over 0.2 and 3.5 SD of the protein, either way, in both replicates (recomputed)
[1] = compound: CC[C@@H]1C(=O)N(C)c2cnc(Nc3ccc(C(=O)NC4CCN(C)CC4)cc3OC)nc2N1C1CCCC1
Procedure, shortened: (§1)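 K562 cells at 2×10^6 cells/mL were exposed to 10 μM compound for 30 min, then aliquots were heated for 3 min across 48°C-58°C, pooled, and extracted in PBS containing 0.5% NP-40 at 4°C. The supernatant after 21,000xg for 90 min was taken as soluble protein and measured by TMTpro 16plex LC-MS/MS with channel sums equalised. Thermal stability is reported relative to control samples, with values from duplicates. Fold changes are given on a log2 scale.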

Amino acid sequences for entries named in this document (tags omitted). A change or cut given only in a name is not applied to a line headed by its entry.
UniProt O75787, whole entry, looked up: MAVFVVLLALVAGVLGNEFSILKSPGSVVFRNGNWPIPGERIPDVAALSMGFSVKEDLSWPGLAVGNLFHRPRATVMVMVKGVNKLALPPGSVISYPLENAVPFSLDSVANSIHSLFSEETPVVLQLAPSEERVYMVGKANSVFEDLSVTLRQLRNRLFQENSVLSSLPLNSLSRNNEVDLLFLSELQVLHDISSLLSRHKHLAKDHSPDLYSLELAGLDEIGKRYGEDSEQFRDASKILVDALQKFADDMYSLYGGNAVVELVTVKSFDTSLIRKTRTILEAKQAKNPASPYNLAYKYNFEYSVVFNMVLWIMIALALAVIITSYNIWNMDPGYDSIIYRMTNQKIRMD
UniProt L0R819, whole entry, looked up: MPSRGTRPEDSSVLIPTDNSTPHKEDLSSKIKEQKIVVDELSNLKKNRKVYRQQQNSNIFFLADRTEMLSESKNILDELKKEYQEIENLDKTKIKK
UniProt O95376: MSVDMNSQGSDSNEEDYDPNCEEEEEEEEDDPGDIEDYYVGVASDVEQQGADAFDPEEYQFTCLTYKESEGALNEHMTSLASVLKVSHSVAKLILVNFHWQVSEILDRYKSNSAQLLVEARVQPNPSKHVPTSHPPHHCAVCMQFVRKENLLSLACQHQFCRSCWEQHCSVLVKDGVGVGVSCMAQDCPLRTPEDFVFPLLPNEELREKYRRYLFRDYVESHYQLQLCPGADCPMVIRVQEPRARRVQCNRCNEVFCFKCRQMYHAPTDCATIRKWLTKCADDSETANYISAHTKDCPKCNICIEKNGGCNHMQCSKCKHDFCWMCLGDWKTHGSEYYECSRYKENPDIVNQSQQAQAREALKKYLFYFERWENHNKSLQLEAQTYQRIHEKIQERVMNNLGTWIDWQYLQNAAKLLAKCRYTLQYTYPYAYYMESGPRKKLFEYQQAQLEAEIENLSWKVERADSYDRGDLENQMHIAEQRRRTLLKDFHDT
UniProt Q9ULH1: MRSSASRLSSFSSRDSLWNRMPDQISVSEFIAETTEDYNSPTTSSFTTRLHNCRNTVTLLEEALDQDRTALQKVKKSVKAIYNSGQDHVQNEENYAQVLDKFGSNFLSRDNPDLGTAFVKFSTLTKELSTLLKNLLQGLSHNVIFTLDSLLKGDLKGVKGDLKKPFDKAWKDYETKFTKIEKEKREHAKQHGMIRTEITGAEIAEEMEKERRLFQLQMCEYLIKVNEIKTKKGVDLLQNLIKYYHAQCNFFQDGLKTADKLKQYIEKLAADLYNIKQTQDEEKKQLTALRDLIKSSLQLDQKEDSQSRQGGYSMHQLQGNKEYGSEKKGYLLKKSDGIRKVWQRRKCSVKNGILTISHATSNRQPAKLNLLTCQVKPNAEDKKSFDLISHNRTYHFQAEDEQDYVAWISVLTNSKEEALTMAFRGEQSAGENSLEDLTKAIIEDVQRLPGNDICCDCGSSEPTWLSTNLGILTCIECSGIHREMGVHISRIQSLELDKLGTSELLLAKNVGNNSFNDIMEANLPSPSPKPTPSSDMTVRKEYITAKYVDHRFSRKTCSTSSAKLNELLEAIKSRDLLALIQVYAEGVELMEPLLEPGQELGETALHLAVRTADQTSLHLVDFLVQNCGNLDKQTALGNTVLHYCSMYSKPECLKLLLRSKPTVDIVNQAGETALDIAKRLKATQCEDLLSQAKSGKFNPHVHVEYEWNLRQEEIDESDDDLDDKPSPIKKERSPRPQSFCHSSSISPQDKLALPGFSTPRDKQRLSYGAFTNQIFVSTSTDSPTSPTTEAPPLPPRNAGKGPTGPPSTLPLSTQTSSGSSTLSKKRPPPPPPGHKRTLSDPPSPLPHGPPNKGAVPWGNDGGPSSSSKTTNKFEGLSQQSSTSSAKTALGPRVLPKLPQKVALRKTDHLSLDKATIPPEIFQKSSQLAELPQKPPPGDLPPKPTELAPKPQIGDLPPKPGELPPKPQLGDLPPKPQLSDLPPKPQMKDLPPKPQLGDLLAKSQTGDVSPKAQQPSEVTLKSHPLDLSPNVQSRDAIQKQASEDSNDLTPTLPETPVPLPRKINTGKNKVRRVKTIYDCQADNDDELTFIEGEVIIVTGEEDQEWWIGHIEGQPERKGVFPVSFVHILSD
UniProt P48047: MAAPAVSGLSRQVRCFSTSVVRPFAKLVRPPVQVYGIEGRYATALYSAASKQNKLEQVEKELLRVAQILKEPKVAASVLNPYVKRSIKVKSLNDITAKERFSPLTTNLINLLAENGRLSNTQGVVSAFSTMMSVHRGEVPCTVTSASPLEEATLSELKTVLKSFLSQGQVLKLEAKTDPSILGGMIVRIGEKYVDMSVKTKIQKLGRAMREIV
UniProt Q9UH62: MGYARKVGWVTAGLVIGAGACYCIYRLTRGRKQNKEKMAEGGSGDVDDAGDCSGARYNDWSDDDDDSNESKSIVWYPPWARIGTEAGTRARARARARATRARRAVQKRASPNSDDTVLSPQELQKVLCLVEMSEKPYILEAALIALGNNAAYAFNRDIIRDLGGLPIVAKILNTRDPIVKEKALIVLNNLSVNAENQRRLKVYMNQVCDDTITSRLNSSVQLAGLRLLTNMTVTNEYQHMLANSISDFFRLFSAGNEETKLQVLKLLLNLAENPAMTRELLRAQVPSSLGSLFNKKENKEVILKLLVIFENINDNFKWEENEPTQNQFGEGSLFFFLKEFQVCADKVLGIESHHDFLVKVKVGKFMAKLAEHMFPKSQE
UniProt P27540, whole entry, looked up: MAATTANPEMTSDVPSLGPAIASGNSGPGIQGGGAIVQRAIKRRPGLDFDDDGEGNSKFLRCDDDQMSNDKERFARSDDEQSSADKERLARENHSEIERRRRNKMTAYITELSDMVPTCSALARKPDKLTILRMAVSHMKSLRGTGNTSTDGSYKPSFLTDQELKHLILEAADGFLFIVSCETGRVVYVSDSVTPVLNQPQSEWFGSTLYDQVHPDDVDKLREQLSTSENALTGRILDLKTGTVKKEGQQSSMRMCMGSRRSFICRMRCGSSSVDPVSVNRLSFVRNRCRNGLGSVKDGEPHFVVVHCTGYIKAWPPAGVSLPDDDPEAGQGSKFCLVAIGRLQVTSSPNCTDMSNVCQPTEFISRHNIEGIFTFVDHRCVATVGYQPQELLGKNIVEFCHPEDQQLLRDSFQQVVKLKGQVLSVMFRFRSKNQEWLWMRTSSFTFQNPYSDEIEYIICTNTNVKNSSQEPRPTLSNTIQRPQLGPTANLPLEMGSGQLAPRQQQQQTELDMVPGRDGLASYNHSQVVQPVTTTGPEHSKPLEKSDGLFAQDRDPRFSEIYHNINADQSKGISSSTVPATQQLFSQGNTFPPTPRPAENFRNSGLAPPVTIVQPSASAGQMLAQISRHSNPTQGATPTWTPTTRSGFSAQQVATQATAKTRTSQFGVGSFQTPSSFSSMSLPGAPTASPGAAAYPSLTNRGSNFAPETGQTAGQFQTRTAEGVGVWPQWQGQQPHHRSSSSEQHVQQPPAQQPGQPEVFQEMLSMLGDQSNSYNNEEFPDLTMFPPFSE
UniProt P24539: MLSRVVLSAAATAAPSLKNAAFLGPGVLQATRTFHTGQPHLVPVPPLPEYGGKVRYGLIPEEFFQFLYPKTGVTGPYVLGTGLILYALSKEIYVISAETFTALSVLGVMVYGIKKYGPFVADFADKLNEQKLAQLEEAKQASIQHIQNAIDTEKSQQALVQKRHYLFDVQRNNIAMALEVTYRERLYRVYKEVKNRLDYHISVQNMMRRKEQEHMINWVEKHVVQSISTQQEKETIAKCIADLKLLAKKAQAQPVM
UniProt Q9Y294, whole entry, looked up: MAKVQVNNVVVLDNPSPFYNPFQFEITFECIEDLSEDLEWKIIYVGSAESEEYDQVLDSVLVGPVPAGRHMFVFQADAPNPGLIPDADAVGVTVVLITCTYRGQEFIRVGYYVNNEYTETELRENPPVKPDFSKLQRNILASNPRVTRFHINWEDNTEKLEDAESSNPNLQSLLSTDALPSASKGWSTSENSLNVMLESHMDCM
UniProt O75947: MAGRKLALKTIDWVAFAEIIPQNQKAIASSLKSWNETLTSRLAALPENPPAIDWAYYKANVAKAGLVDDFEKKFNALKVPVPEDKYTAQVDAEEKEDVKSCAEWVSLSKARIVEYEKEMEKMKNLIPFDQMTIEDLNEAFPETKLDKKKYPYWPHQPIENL
UniProt P21281, whole entry, looked up: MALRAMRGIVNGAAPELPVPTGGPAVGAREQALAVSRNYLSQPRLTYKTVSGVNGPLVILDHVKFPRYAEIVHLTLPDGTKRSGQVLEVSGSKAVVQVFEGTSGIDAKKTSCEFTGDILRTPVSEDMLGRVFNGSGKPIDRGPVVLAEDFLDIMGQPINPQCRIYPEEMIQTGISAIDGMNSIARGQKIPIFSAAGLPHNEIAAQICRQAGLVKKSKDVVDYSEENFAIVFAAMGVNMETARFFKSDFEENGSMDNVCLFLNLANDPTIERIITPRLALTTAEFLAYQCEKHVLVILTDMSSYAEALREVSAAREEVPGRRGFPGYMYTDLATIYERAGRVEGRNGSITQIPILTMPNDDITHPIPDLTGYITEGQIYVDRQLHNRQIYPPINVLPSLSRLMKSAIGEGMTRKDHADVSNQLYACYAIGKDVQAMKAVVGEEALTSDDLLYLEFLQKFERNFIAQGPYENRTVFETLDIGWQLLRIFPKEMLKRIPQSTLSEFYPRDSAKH
UniProt Q13510, whole entry, looked up: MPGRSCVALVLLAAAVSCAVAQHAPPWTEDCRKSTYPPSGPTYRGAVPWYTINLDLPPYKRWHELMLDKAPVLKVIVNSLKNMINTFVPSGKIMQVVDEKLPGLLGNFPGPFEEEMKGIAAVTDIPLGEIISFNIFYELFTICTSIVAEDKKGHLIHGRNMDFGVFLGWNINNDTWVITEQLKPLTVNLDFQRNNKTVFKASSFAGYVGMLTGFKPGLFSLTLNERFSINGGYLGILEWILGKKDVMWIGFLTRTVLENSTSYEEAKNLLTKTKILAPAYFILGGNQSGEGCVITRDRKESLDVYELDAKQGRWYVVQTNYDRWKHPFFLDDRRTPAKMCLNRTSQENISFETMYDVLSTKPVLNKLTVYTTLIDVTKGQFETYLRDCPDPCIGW
UniProt Q96IX5: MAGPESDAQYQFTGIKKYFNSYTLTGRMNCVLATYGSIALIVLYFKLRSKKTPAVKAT
UniProt Q9Y5K8, whole entry, looked up: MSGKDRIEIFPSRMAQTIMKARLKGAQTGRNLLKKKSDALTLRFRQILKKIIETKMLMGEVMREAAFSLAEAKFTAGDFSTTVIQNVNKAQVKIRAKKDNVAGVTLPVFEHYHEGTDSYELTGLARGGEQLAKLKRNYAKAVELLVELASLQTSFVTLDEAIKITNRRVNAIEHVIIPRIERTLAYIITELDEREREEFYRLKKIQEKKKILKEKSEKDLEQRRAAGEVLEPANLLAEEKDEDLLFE

volasertib = compound: CC[C@@H]1C(=O)N(C)c2cnc(Nc3ccc(C(=O)N[C@H]4CC[C@H](N5CCN(CC6CC6)CC5)CC4)cc3OC)nc2N1C(C)C [volasertib]
Procedure, shortened: as §1

[2] = compound: CC[C@H](C)N1C=C(C2=C(C=C(C=C21)C3=CN=C(C=C3)N4CCNCC4)C(=O)NCC5=C(C=C(NC5=O)C)C)C
Procedure, shortened: as §1

epoxomicin = compound: CC[C@H](C)[C@@H](C(=O)N[C@@H]([C@@H](C)O)C(=O)N[C@@H](CC(C)C)C(=O)[C@]1(CO1)C)NC(=O)[C@H]([C@@H](C)CC)N(C)C(=O)C [epoxomicin]
Procedure, shortened: as §1

[3] = compound: CCn1c(C(=O)N(C2CC2)C2CC2)cc2c3c(ncn3C)c(Nc3cc(C)n(C)n3)nc21
Procedure, shortened: as §1

[4] = compound: CCn1cc(-c2ccnc3[nH]c(-c4cccc(CN(C)C)c4)cc23)c(-c2ccc(NC(=O)N(C)C)cc2)n1
Procedure, shortened: as §1

[5] = compound: CN(C)CC(=O)Nc1ccc2[nH]c(=O)c3ccccc3c2c1
Procedure, shortened: as §1

rosiglitazone = compound: CN(CCOC1=CC=C(C=C1)C[C@H]2C(=O)NC(=O)S2)C3=CC=CC=N3 (racemic) [rosiglitazone]
Procedure, shortened: as §1

[6] = compound: CN1C2=C(C3=C1C(=O)N(N=C3)CC4=CC(=CC=C4)N)SC(=C2)S(=O)C
Procedure, shortened: as §1

[7] = compound: CN1CCC(CNc2ccc3ncc(-c4cccc(OC(F)(F)F)c4)n3n2)CC1
Procedure, shortened: as §1

saracatinib = compound: CN1CCN(CCOc2cc(OC3CCOCC3)c3c(Nc4c(Cl)ccc5c4OCO5)ncnc3c2)CC1 [saracatinib]
Procedure, shortened: as §1

sotrastaurin = compound: CN1CCN(c2nc(C3=C(c4c[nH]c5ccccc45)C(=O)NC3=O)c3ccccc3n2)CC1 [sotrastaurin]
Procedure, shortened: as §1

alvocidib = compound: CN1CC[C@H](c2c(O)cc(O)c3c(=O)cc(-c4ccccc4Cl)oc23)[C@H](O)C1 [alvocidib]
Procedure, shortened: as §1

Tubastatin A = compound: CN1CCc2c(c3ccccc3n2Cc2ccc(C(=O)NO)cc2)C1 [Tubastatin A]
Procedure, shortened: as §1

[8] = compound: CNC(=O)C1=CC=CC=C1NC2=NC(=NC=C2Cl)NC3=C(C=C(C=C3)N4CCOCC4)OC
Procedure, shortened: as §1

defactinib = compound: CNC(=O)c1ccc(Nc2ncc(C(F)(F)F)c(NCc3nccnc3N(C)S(C)(=O)=O)n2)cc1 [defactinib]
Procedure, shortened: as §1

rucaparib = compound: CNCc1ccc(-c2[nH]c3cc(F)cc4c3c2CCNC4=O)cc1 [rucaparib]
Procedure, shortened: as §1

[9] = compound: CNc1nc(-c2ccc3c(N)n[nH]c3c2)cc(N2C[C@@H](C(=O)NC3CCCCC3)CC[C@H]2C)n1
Procedure, shortened: as §1

encorafenib = compound: COC(=O)N[C@@H](C)CNc1nccc(-c2cn(C(C)C)nc2-c2cc(Cl)cc(NS(C)(=O)=O)c2F)n1 [encorafenib]
Procedure, shortened: as §1

[10] = compound: COC(=O)[C@H](CCSC)NC(=O)C1=C(C=C(C=C1)NC[C@H](CS)N)C2=CC=CC=C2
Procedure, shortened: as §1

Measured: log2 fold change

ATP6AP2 (UniProt O75787)
inactive: [1] 0.017 | volasertib -0.019 | [2] -0.015 | epoxomicin 0.045 | [3] 0.046 | [4] 0.033 | [5] -0.048 | rosiglitazone 0.004 | [6] 0.072 | [7] 0.044 | saracatinib 0.03 | sotrastaurin -0.012 | alvocidib -0.009 | Tubastatin A 0.084 | [8] 0.033 | defactinib 0.018 | rucaparib -0.008 | [9] -0.051 | encorafenib -0.002 | [10] -0.017

ASDURF (UniProt L0R819)
inactive: [1] 0.027 | volasertib 0.164 | [2] -0.062 | epoxomicin -0.01 | [3] 0.024 | [4] 0.003 | [5] -0.069 | rosiglitazone -0.006 | [6] -0.043 | [7] 0.006 | saracatinib 0.03 | sotrastaurin 0.044 | alvocidib 0.05 | Tubastatin A -0.018 | [8] -0.042 | defactinib 0.029 | rucaparib 0.051 | [9] 0.023 | encorafenib -0.072 | [10] 0.039

ARIH2 (UniProt O95376)
inactive: [1] -0.074 | volasertib -0.116 | [2] 0.012 | epoxomicin 0.053 | [3] 0.008 | [4] -0.009 | [5] -0.016 | rosiglitazone -0.014 | [6] -0.094 | [7] -0.042 | saracatinib 0.034 | sotrastaurin -0.009 | alvocidib 0.028 | Tubastatin A -0.008 | [8] -0.013 | defactinib -0.056 | rucaparib -0.047 | [9] 0.023 | encorafenib 0.018 | [10] 0.022

ASAP1 isoform 2 (UniProt Q9ULH1)
inactive: [1] -0.051 | volasertib -0.11 | [2] -0.054 | epoxomicin 0.073 | [3] -0.009 | [4] 0.078 | [5] 0.059 | rosiglitazone 0.053 | [6] -0.002 | [7] -0.138 | saracatinib -0.075 | sotrastaurin -0.088 | alvocidib -0.185 | Tubastatin A 0.075 | [8] 0.065 | defactinib -0.022 | rucaparib 0.096 | [9] 0.05 | encorafenib 0.058 | [10] -0.088

ATP5PO (UniProt P48047)
inactive: [1] -0.017 | volasertib 0.06 | [2] -0.023 | epoxomicin 0.069 | [3] 0.034 | [4] 0.019 | [5] 0.005 | rosiglitazone -0.025 | [6] 0.001 | [7] 0.087 | saracatinib 0.013 | sotrastaurin 0.023 | alvocidib 0.029 | Tubastatin A -0.023 | [8] 0.014 | defactinib 0.014 | rucaparib 0.011 | [9] -0.037 | encorafenib -0.029 | [10] 0.028

ARMCX3 (UniProt Q9UH62)
inactive: [1] 0 | volasertib -0.251 | [2] 0.118 | epoxomicin -0.026 | [3] -0.054 | [4] -0.205 | [5] 0.16 | rosiglitazone 0 | [6] 0.05 | [7] -0.015 | saracatinib -0.099 | sotrastaurin -0.159 | alvocidib -0.061 | Tubastatin A 0.135 | [8] -0.01 | defactinib -0.037 | rucaparib 0.066 | [9] 0.055 | encorafenib 0.055 | [10] -0.051

ARPC1B (UniProt O15143)
inactive: [1] 0.061 | volasertib 0.004 | [2] -0.004 | epoxomicin 0.023 | [3] 0.014 | [4] -0.068 | [5] 0.06 | rosiglitazone -0.034 | [6] -0.077 | [7] 0.175 | saracatinib 0.08 | sotrastaurin -0.027 | alvocidib -0.058 | Tubastatin A -0.019 | [8] 0.017 | defactinib -0.019 | rucaparib -0.062 | [9] -0.042 | encorafenib 0.149 | [10] -0.067

ARPC3 (UniProt O15145)
inactive: [1] -0.031 | volasertib -0.03 | [2] -0.024 | epoxomicin 0.054 | [3] 0.047 | [4] -0.029 | [5] 0.002 | rosiglitazone -0.045 | [6] -0.046 | [7] -0.009 | saracatinib 0.05 | sotrastaurin -0.007 | alvocidib -0.023 | Tubastatin A 0.014 | [8] 0.043 | defactinib -0.04 | rucaparib 0.01 | [9] -0.037 | encorafenib -0.045 | [10] -0.004

ARNT (UniProt P27540)
inactive: [1] -0.1 | volasertib -0.119 | [2] 0.063 | epoxomicin 0 | [3] 0 | [4] 0.086 | [5] 0.089 | rosiglitazone -0.121 | [6] 0.066 | [7] -0.096 | saracatinib 0.102 | sotrastaurin -0.018 | alvocidib 0.04 | Tubastatin A 0.053 | [8] -0.022 | defactinib -0.007 | rucaparib 0.025 | [9] 0.101 | encorafenib -0.019 | [10] 0.221

ATP5PB (UniProt P24539)
inactive: [1] -0.025 | volasertib 0.084 | [2] -0.026 | epoxomicin 0.003 | [3] 0.022 | [4] 0.015 | [5] 0 | rosiglitazone -0.007 | [6] 0.001 | [7] 0.057 | saracatinib 0.025 | sotrastaurin 0.041 | alvocidib 0.004 | Tubastatin A -0.008 | [8] 0.031 | defactinib 0.013 | rucaparib -0.052 | [9] -0.043 | encorafenib -0.002 | [10] -0.019

ASF1A (UniProt Q9Y294)
inactive: [1] -0.034 | volasertib -0.054 | [2] 0.031 | epoxomicin -0.013 | [3] -0.04 | [4] -0.003 | [5] 0.006 | rosiglitazone -0.014 | [6] 0.102 | [7] -0.016 | saracatinib 0.072 | sotrastaurin -0.003 | alvocidib -0.001 | Tubastatin A 0.018 | [8] -0.021 | defactinib -0.076 | rucaparib -0.016 | [9] -0.087 | encorafenib 0.01 | [10] 0.037

ATP5PD (UniProt O75947)
inactive: [1] -0.03 | volasertib 0.094 | [2] -0.002 | epoxomicin 0.036 | [3] 0.027 | [4] 0.016 | [5] -0.008 | rosiglitazone -0.014 | [6] -0.059 | [7] 0.14 | saracatinib 0.053 | sotrastaurin 0.049 | alvocidib -0.001 | Tubastatin A -0.003 | [8] 0.004 | defactinib 0.009 | rucaparib 0.001 | [9] 0.011 | encorafenib -0.023 | [10] 0.016

ATP6V1B2 (UniProt P21281)
inactive: [1] -0.087 | volasertib -0.029 | [2] -0.033 | epoxomicin 0.014 | [3] 0.022 | [4] -0.111 | [5] -0.02 | rosiglitazone -0.002 | [6] -0.022 | [7] -0.091 | saracatinib 0.003 | sotrastaurin 0.009 | alvocidib 0.029 | Tubastatin A 0.027 | [8] -0.056 | defactinib 0.018 | rucaparib 0.036 | [9] -0.007 | encorafenib -0.001 | [10] 0.025

ASAH1 isoform 2 (UniProt Q13510)
inactive: [1] -0.085 | volasertib -0.043 | [2] -0.021 | epoxomicin 0.135 | [3] 0.122 | [4] -0.023 | [5] 0.034 | rosiglitazone -0.007 | [6] -0.032 | [7] -0.174 | saracatinib -0.072 | sotrastaurin -0.027 | alvocidib 0.019 | Tubastatin A -0.008 | [8] 0.117 | defactinib -0.031 | rucaparib 0.002 | [9] 0.005 | encorafenib -0.03 | [10] 0.035

ATP5MD (UniProt Q96IX5)
inactive: [1] 0.024 | volasertib 0.016 | [2] 0.054 | epoxomicin 0.102 | [3] 0.108 | [4] 0.001 | [5] 0 | rosiglitazone -0.119 | [6] -0.005 | [7] -0.151 | saracatinib 0.027 | sotrastaurin 0.083 | alvocidib -0.014 | Tubastatin A -0.089 | [8] 0.084 | defactinib -0.03 | rucaparib 0.116 | [9] 0.075 | encorafenib -0.074 | [10] 0.004

Quoted from the results shown (4 entries):
ARPC3 (UniProt O15145)
inactive: [1] -0.031 | volasertib -0.03 | [2] -0.024 | epoxomicin 0.054 | [3] 0.047 | [4] -0.029 | [5] 0.002 | rosiglitazone -0.045 | [6] -0.046 | [7] -0.009 | saracatinib 0.05 | sotrastaurin -0.007 | alvocidib -0.023 | Tubastatin A 0.014 | [8] 0.043 | defactinib -0.04 | rucaparib 0.01 | [9] -0.037 | encorafenib -0.045 | [10] -0.004

ARNT (UniProt P27540)
inactive: [1] -0.1 | volasertib -0.119 | [2] 0.063 | epoxomicin 0 | [3] 0 | [4] 0.086 | [5] 0.089 | rosiglitazone -0.121 | [6] 0.066 | [7] -0.096 | saracatinib 0.102 | sotrastaurin -0.018 | alvocidib 0.04 | Tubastatin A 0.053 | [8] -0.022 | defactinib -0.007 | rucaparib 0.025 | [9] 0.101 | encorafenib -0.019 | [10] 0.221

ATP5PB (UniProt P24539)
inactive: [1] -0.025 | volasertib 0.084 | [2] -0.026 | epoxomicin 0.003 | [3] 0.022 | [4] 0.015 | [5] 0 | rosiglitazone -0.007 | [6] 0.001 | [7] 0.057 | saracatinib 0.025 | sotrastaurin 0.041 | alvocidib 0.004 | Tubastatin A -0.008 | [8] 0.031 | defactinib 0.013 | rucaparib -0.052 | [9] -0.043 | encorafenib -0.002 | [10] -0.019

ASF1A (UniProt Q9Y294)
inactive: [1] -0.034 | volasertib -0.054 | [2] 0.031 | epoxomicin -0.013 | [3] -0.04 | [4] -0.003 | [5] 0.006 | rosiglitazone -0.014 | [6] 0.102 | [7] -0.016 | saracatinib 0.072 | sotrastaurin -0.003 | alvocidib -0.001 | Tubastatin A 0.018 | [8] -0.021 | defactinib -0.076 | rucaparib -0.016 | [9] -0.087 | encorafenib 0.01 | [10] 0.037

(cont.)

ATP6V1D (UniProt Q9Y5K8)
inactive: [1] -0.015 | volasertib 0.036 | [2] -0.019 | epoxomicin 0.009 | [3] 0.027 | [4] -0.02 | [5] -0.012 | rosiglitazone 0.018 | [6] -0.052 | [7] -0.057 | saracatinib 0.014 | sotrastaurin 0.045 | alvocidib 0.028 | Tubastatin A -0.021 | [8] -0.05 | defactinib -0.004 | rucaparib -0.009 | [9] 0.03 | encorafenib 0.018 | [10] 0.029
